# Structures can show the parent of a compound that is named as a salt. Some of the results follow. The numbers are fractions of the control, whatever unit the source prints. Most entries show no effect beyond the scatter of the controls.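 A lentiviral reporter stably expressed in MIN6 mouse insulinoma beta cells uses Pdx1 and Ins1 promoters to drive separate nucleus-targeted fluorescent proteins; automated imaging with Hoechst nuclear stain counted cells. Possible hits were drugs shifting Ins1 promoter signal more than two median absolute deviations from DMSO controls, with Pdx1 activity roughly normal.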
# System: MIN6
# Test: % Pdx1+ Ins1-low (RFP-only, immature) cells relative to DMSO control (fold of DMSO control); higher = more immature Pdx1+/Ins1-low cells
# Settings: 8.5 µM; 48 h; glucose 5 mM
row,SMILES,% Pdx1+ Ins1-low
1,CCCCC(CC)CNC(=N)NC(=N)NCCCCCCNC(=N)NC(=N)NCC(CC)CCCC (stereo not drawn) [Alexidine dihydrochloride],0.519
2,CC1(C)NC(=O)N(c2ccc([N+](=O)[O-])c(C(F)(F)F)c2)C1=O [Nilutamide],0.749
3,CC(C)NCC(O)COc1cccc2ccccc12 (stereo not drawn) [Propranolol hydrochloride],0.818
4,Nc1nc(=O)c2c([nH]1)NC[C@@H](CNc1ccc(C(=O)N[C@@H](CCC(=O)O)C(=O)O)cc1)N2C=O [Folinic acid calcium salt],1.04
5,COc1ccc2cc([C@@H](C)C(=O)O)ccc2c1 [(R) -Naproxen sodium salt],1.05
6,COc1ccc2cc1Oc1ccc(cc1)C[C@H]1c3cc(c(OC)cc3CCN1C)Oc1c(OC)c(OC)cc3c1[C@H](C2)N(C)CC3 [Tetrandrine],0.629
7,CCC1=C(C)CN(C(=O)NCCc2ccc(S(=O)(=O)NC(=O)N[C@H]3CC[C@H](C)CC3)cc2)C1=O [Glimepiride],1.06
8,CCCCOc1cc(C(=O)NCCN(CC)CC)c2ccccc2n1 [Dibucaine],0.869
9,CCS(=O)(=O)CCn1c([N+](=O)[O-])cnc1C [Tinidazole],0.826
10,Cc1nc2n(c(=O)c1CCN1CCC(c3noc4cc(F)ccc34)CC1)CCCC2 [Risperidone],0.514
11,CNCCC(Oc1ccc(C(F)(F)F)cc1)c1ccccc1 (stereo not drawn) [Fluoxetine hydrochloride],0.836
12,OCc1cc(C(O)CNCCCCCCOCCCCc2ccccc2)ccc1O (stereo not drawn) [Salmeterol],0.951
13,CCn1cc(C(=O)O)c(=O)c2cnc(N3CCCC3)nc21 [Piromidic acid],0.642
14,Cn1c(-c2ccc3c(c2)OCO3)cc(=O)c2ccccc21 [Graveoline],1.09
15,CC(=O)[C@H]1CC[C@H]2[C@@H]3C[C@H](C)C4=CC(=O)CC[C@]4(C)[C@H]3[C@@H](O)C[C@]12C [Medrysone],1.01
16,O=C(O)c1cc(-c2ccc(F)cc2F)ccc1O [Diflunisal],0.9
17,CCCCNC(=O)NS(=O)(=O)c1ccc(C)cc1 [Tolbutamide],0.791
18,CC(C)C(=O)Nc1ccc([N+](=O)[O-])c(C(F)(F)F)c1 [Flutamide],0.498
19,COc1c2c(nc3ccccc13)OC(C(C)(O)CO)C2 (stereo not drawn) [Dubinidine],0.387
20,Cn1cnc([N+](=O)[O-])c1Sc1ncnc2[nH]cnc12 [Azathioprine],0.651
21,COC(=O)C1=C(C)NC(C)=C(C(=O)OC(C)C)C1c1cccc2nonc12 (stereo not drawn) [Isradipine],0.614
22,CC(=O)SCC(Cc1ccccc1)C(=O)NCC(=O)OCc1ccccc1 (stereo not drawn) [Racecadotril],0.92
23,C[C@H](CCC(=O)O)[C@H]1CC[C@H]2[C@@H]3CC[C@@H]4C[C@H](O)CC[C@]4(C)[C@H]3CC[C@]12C [Lithocholic acid],0.779
24,CC1COc2c(N3CCN(C)CC3)c(F)cc3c(=O)c(C(=O)O)cn1c23 (stereo not drawn) [Ofloxacin],0.739
25,"C[C@@]1(O)CCOC(=O)C1 [Mevalonic-D, L acid lactone]",1.33

row,SMILES,% Pdx1+ Ins1-low
1,COCC(=O)Nc1c(I)c(C(=O)NCC(O)CO)c(I)c(C(=O)N(C)CC(O)CO)c1I (stereo not drawn) [Iopromide],0.737
2,O=C(O)CCCC[C@@H]1SC[C@@H]2NC(=O)N[C@@H]21 [Biotin],1.35
3,NCCC[C@H](N)CC(=O)N[C@H]1CNC(=O)[C@H]([C@H]2C[C@H](O)NC(N)=N2)NC(=O)/C(=C/NC(N)=O)NC(=O)[C@H](CO)NC(=O)[C@H](CO)NC1=O [Viomycin sulfate],0.664
4,NC(CO)C(=O)NNCc1ccc(O)c(O)c1O (stereo not drawn) [Benserazide hydrochloride],0.777
5,CN(C)CCCN1c2ccccc2CCc2ccccc21 [Imipramine hydrochloride],0.967
6,Fc1ccc([C@@H]2CCNC[C@H]2COc2ccc3c(c2)OCO3)cc1 [Paroxetine Hydrochloride],0.625
7,CN1CCC(OC(c2ccccc2)c2ccccc2)CC1 [Diphenylpyraline hydrochloride],1.24
8,NCC[C@H](O)C(=O)N[C@@H]1C[C@H](N)[C@@H](O[C@H]2O[C@H](CN)[C@@H](O)[C@H](O)[C@H]2O)[C@H](O)[C@H]1O[C@H]1O[C@H](CO)[C@@H](O)[C@H](N)[C@H]1O [Amikacin hydrate],1.64
9,O=C1CCC(N2C(=O)c3ccccc3C2=O)C(=O)N1 (stereo not drawn) [Thalidomide],0.839
10,CC1(C)S[C@@H]2[C@H](NC(=O)Cc3ccccc3)C(=O)N2[C@H]1C(=O)O [Benzathine benzylpenicillin],0.796
11,CC1(C)S[C@@H]2[C@H](NC(=O)Cc3ccccc3)C(=O)N2[C@H]1C(=O)O [Benzylpenicillin sodium],0.795
12,CC(=O)OCC1=C(C(=O)O)N2C(=O)[C@@H](NC(=O)Cc3cccs3)[C@H]2SC1 [Cephalothin sodium salt],0.984
13,Clc1ccc(C(Cn2ccnc2)OCc2csc3c(Cl)cccc23)c(Cl)c1 (stereo not drawn) [Sertaconazole nitrate],0.987
14,CCN(CC)CCNC(=O)COc1ccc(OC)cc1 [Mefexamide hydrochloride],1.26
15,C[n+]1ccccc1/C=N/O [Pralidoxime chloride],0.833
16,Cc1cccc(Nc2ccccc2C(=O)O)c1C [Mefenamic acid],0.941
17,O=C(O)[C@]1(O)C[C@@H](O)[C@@H](O)[C@H](O)C1 [Quinic acid],0.701
18,CNCCCN1c2ccccc2CCc2ccccc21 [Desipramine hydrochloride],0.818
19,O=C1OC(CN2CCOCC2)CN1/N=C/c1ccc([N+](=O)[O-])o1 (stereo not drawn) [Furaltadone hydrochloride],1.22
20,Cn1c(=O)c2c(ncn2CCO)n(C)c1=O [Etofylline],1.1
21,C#CCN(C)CCCOc1ccc(Cl)cc1Cl [Clorgyline hydrochloride],0.35
22,O=C(O)CN(CCN(CC(=O)O)CC(=O)O)CCN(CC(=O)O)CC(=O)O [Pentetic acid],0.621
23,"CC(C)NCC(O)c1cc(O)cc(O)c1 (stereo not drawn) [Metaproterenol sulfate, orciprenaline sulfate]",0.796
24,CCN(CC)Cc1cc(Nc2ccnc3cc(Cl)ccc23)ccc1O [Amodiaquin dihydrochloride dihydrate],0.833
25,CCC(=O)OCC(=O)[C@@]1(OC(=O)CC)[C@@H](C)C[C@H]2[C@@H]3CCC4=CC(=O)C=C[C@]4(C)[C@@]3(Cl)[C@@H](O)C[C@@]21C [Beclomethasone dipropionate],1.29

# Some values from the results shown:
# CCN(CC)CCNC(=O)COc1ccc(OC)cc1 [Mefexamide hydrochloride] – % Pdx1+ Ins1-low: 1.26
# O=C(O)CCCC[C@@H]1SC[C@@H]2NC(=O)N[C@@H]21 [Biotin] – % Pdx1+ Ins1-low: 1.35
# CC(C)NCC(O)c1cc(O)cc(O)c1 (stereo not drawn) [Metaproterenol sulfate, orciprenaline sulfate] – % Pdx1+ Ins1-low: 0.796
# O=C1CCC(N2C(=O)c3ccccc3C2=O)C(=O)N1 (stereo not drawn) [Thalidomide] – % Pdx1+ Ins1-low: 0.839
# Cn1c(=O)c2c(ncn2CCO)n(C)c1=O [Etofylline] – % Pdx1+ Ins1-low: 1.1
# O=C(O)[C@]1(O)C[C@@H](O)[C@@H](O)[C@H](O)C1 [Quinic acid] – % Pdx1+ Ins1-low: 0.701

# Next part

row,SMILES,% Pdx1+ Ins1-low
1,O=C(/C=C/C=C/c1ccc2c(c1)OCO2)N1CCCCC1 [Piperine],0.996
2,COc1ccccc1N1CCN(CCCNc2cc(=O)n(C)c(=O)n2C)CC1 [Urapidil hydrochloride],1.14
3,CCCCNc1ccc(C(=O)OCCN(C)C)cc1 [Tetracaïne hydrochloride],1.45
4,CN(C)[C@@H]1C(O)=C(C(=O)NCNCCCC[C@H](N)C(=O)O)C(=O)[C@@]2(O)C(O)=C3C(=O)c4c(O)cccc4[C@@](C)(O)[C@H]3C[C@@H]12 [Lymecycline],1.01
5,"CCN(CC)CCOc1ccc(C(=C(Cl)c2ccccc2)c2ccccc2)cc1 [Clomiphene citrate (Z,E)]",1.19
6,CN1CCC(=C2c3ccccc3CCc3sccc32)CC1 [Pizotifen malate],1.13
7,CN1CCOC(c2ccccc2)c2ccccc2C1 (stereo not drawn) [Nefopam hydrochloride],0.908
8,Cc1cnc(C(=O)NCCc2ccc(S(=O)(=O)NC(=O)NC3CCCCC3)cc2)cn1 [Glipizide],0.462
9,"CC(O)(P(=O)(O)O)P(=O)(O)O [Etidronic acid, disodium salt]",1.01
10,CCC1NC(=O)c2cc(S(N)(=O)=O)c(Cl)cc2N1 (stereo not drawn) [Quinethazone],1.03
11,COc1ccccc1N1CCN(CCCCNC(=O)c2ccc3ccccc3c2)CC1,0.728
12,COC(=O)[C@H]1[C@H]2C[C@@H]3c4[nH]c5cc(OC)ccc5c4CCN3C[C@H]2C[C@@H](OC(=O)/C=C/c2cc(OC)c(OC)c(OC)c2)[C@@H]1OC [Rescinnamin],1.65
13,COC(=O)C1=C(C)NC(C)=C(C(=O)OCCN(C)Cc2ccccc2)C1c1cccc([N+](=O)[O-])c1 (stereo not drawn) [Nicardipine hydrochloride],0.536
14,Cc1ccccc1C(OCCN(C)C)c1ccccc1 (stereo not drawn) [Orphenadrine hydrochloride],1.12
15,O=C1C(O)=C([C@H]2CC[C@H](c3ccc(Cl)cc3)CC2)C(=O)c2ccccc21 [Atovaquone],0.913
16,"CC(C)NCC(O)c1ccc(O)c(O)c1 (single isomer, unassigned; (-)) [(-)-Isoproterenol hydrochloride]",1.31
17,NC(=O)NC1NC(=O)NC1=O (stereo not drawn) [Allantoin],1.15
18,CN(C)CCOC(c1ccc(Cl)cc1)c1ccccn1 (stereo not drawn) [Carbinoxamine maleate salt],0.482
19,CC/C(=C(\c1ccccc1)c1ccc(OCCN(C)C)cc1)c1ccccc1 [Tamoxifen citrate],0.973
20,CCc1oc2ccccc2c1C(=O)c1cc(Br)c(O)c(Br)c1 [Benzbromarone],1.31
21,NCc1ccc(S(N)(=O)=O)cc1 [Mafenide hydrochloride],0.945
22,CN[C@@H]1[C@H](O[C@H]2[C@H](O[C@H]3[C@H](O)[C@@H](O)[C@H](NC(=N)N)[C@@H](O)[C@@H]3NC(=N)N)O[C@@H](C)[C@]2(O)CO)O[C@@H](CO)[C@H](O)[C@H]1O [Dihydrostreptomycin sulfate],0.832
23,CC[N+](CC)(CC)CCOc1cccc(OCC[N+](CC)(CC)CC)c1OCC[N+](CC)(CC)CC [Gallamine triethiodide],1.19
